Data as given in PubChem BioAssay AID1159584 (Peter MacCallum Cancer Centre, 2016).

Assay: 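Knock-downs that harm CDH1-null cells more than parental MCF10A cells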 (primary screen)
Cells: human MCF10A breast epithelial cells, parental and CDH1-null
Reagents: siRNA against human genes
Read-out: 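Cell viability by CellTiter-Glo ATP luminescence, each line scaled to the mean of mock wells across plates, then CDH1-null over parental ratio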
Direction: CDH1-null / parental viability ratio: higher = CDH1-null cells survive relatively better than parental; CDH1-null viability vs mock: higher = more viable CDH1-null cells; parental viability vs mock: higher = more viable parental cells
The deposit covers about 18,000 reagents; shown is a random part of them. No sequences are given here. The record does not give: the amount of reagent, the time to read-out.

The first 8 records, to show the layout:
Gene	CDH1-null / parental viability ratio	CDH1-null viability vs mock (fraction of mock)	parental viability vs mock (fraction of mock)
MT1E (metallothionein 1E)	0.74	0.64	0.86
RGL1 (ral guanine nucleotide dissociation stimulator like 1)	1.25	1.05	0.84
RUNDC1 (RUN domain containing 1)	1.23	1.46	1.19
OR1L3 (olfactory receptor family 1 subfamily L member 3)	1.18	0.78	0.66
FDXR (ferredoxin reductase)	1.08	1.14	1.06
OR6F1 (olfactory receptor family 6 subfamily F member 1)	1.09	1.02	0.94
NGRN (neugrin, neurite outgrowth associated)	0.69	0.73	1.06
GPR20 (G protein-coupled receptor 20)	1.37	0.85	0.62

The list itself, repeating the preview:
Gene	CDH1-null / parental viability ratio	CDH1-null viability vs mock (fraction of mock)	parental viability vs mock (fraction of mock)
MT1E (metallothionein 1E)	0.74	0.64	0.86
RGL1 (ral guanine nucleotide dissociation stimulator like 1)	1.25	1.05	0.84
RUNDC1 (RUN domain containing 1)	1.23	1.46	1.19
OR1L3 (olfactory receptor family 1 subfamily L member 3)	1.18	0.78	0.66
FDXR (ferredoxin reductase)	1.08	1.14	1.06
OR6F1 (olfactory receptor family 6 subfamily F member 1)	1.09	1.02	0.94
NGRN (neugrin, neurite outgrowth associated)	0.69	0.73	1.06
GPR20 (G protein-coupled receptor 20)	1.37	0.85	0.62
SUMO1 (small ubiquitin like modifier 1)	0.84	0.52	0.62
SRRM3 (serine/arginine repetitive matrix 3)	1.38	1.06	0.77
RCBTB2 (RCC1 and BTB domain containing protein 2)	0.57	0.5	0.88
IFIT3 (interferon induced protein with tetratricopeptide repeats 3)	0.91	0.84	0.92
MAGEB6 (MAGE family member B6)	0.85	0.46	0.54
MC4R (melanocortin 4 receptor)	0.87	0.78	0.9
CLTRN (collectrin, amino acid transport regulator)	1.18	0.66	0.56
SIX3 (SIX homeobox 3)	0.88	0.69	0.78
AKIP1 (A-kinase interacting protein 1)	1.04	0.5	0.48
TMED10 (transmembrane p24 trafficking protein 10)	0.94	0.64	0.68
PTPRU (protein tyrosine phosphatase receptor type U)	1.23	0.96	0.78
CXCL16 (C-X-C motif chemokine ligand 16)	1.41	0.93	0.66
SOAT2 (sterol O-acyltransferase 2)	0.9	0.7	0.78
CEL (carboxyl ester lipase)	0.82	0.55	0.67
PPDPF	0.84	0.7	0.83
POC1B (POC1 centriolar protein B)	1.14	0.82	0.72
ZNF112 (zinc finger protein 112)	0.86	0.38	0.44
ZNF311 (zinc finger protein 311)	1.1	0.92	0.84
TLE3 (TLE family member 3, transcriptional corepressor)	0.78	0.53	0.68
WDR54 (WD repeat domain 54)	0.73	0.51	0.7
EFHD1 (EF-hand domain family member D1)	0.72	0.7	0.97
ZNF34 (zinc finger protein 34)	1.16	0.72	0.62
RPL10A (ribosomal protein L10a)	1.27	0.28	0.22
TRA2A (transformer 2 alpha homolog)	1.22	1.1	0.9
FAM156A (family with sequence similarity 156 member A)	0.82	0.42	0.51
PWP1 (PWP1 homolog, endonuclein)	1.01	0.86	0.85
PAF1 (PAF1 component of Paf1/RNA polymerase II complex)	0.96	0.48	0.5
KIAA0232	1.37	0.52	0.38
MYEF2 (myelin expression factor 2)	0.86	0.5	0.58
CYS1 (cystin 1)	1.05	0.84	0.8
PCDHGB7 (protocadherin gamma subfamily B, 7)	0.89	0.82	0.92
PPY (pancreatic polypeptide)	0.73	0.57	0.78
KLF13 (KLF transcription factor 13)	0.92	0.9	0.98
SERINC5 (serine incorporator 5)	1.08	1.06	0.98
BCL2L15 (BCL2 like 15)	0.73	0.63	0.86
ZFP69 (ZFP69 zinc finger protein)	0.92	0.84	0.91
SERAC1 (serine active site containing 1)	0.9	0.74	0.82
ZFYVE26 (zinc finger FYVE-type containing 26)	0.85	0.56	0.66
ACOX2 (acyl-CoA oxidase 2)	0.95	0.82	0.86
FFAR2 (free fatty acid receptor 2)	0.85	0.89	1.05
ALG10 (ALG10 alpha-1,2-glucosyltransferase)	1.03	1.01	0.98
NAIP (NLR family apoptosis inhibitory protein)	1.05	0.96	0.91
RSKR (ribosomal protein S6 kinase related)	0.88	0.8	0.91
DDC (dopa decarboxylase)	0.97	0.97	1
TRMO (tRNA methyltransferase O)	0.91	0.62	0.68
DRC8 (dynein regulatory complex subunit 8)	0.93	0.76	0.82
C1QTNF4 (C1q and TNF related 4)	1.43	0.8	0.56
MIB2 (MIB E3 ubiquitin protein ligase 2)	1.05	0.99	0.94
MMP17 (matrix metallopeptidase 17)	1.04	0.87	0.84
FRRS1 (ferric chelate reductase 1)	1.25	0.8	0.64
SPANXN1 (SPANX family member N1)	0.79	0.66	0.84
GMPPA (GDP-mannose pyrophosphorylase A)	1.29	0.8	0.62
RBM24 (RNA binding motif protein 24)	1	0.46	0.46
KLF1 (KLF transcription factor 1)	0.94	0.58	0.62
PDCD4 (programmed cell death 4)	1.15	0.78	0.68
TOM1 (target of myb1 membrane trafficking protein)	0.81	0.57	0.7
FAM43B (family with sequence similarity 43 member B)	1.06	0.73	0.69
LIMS3 (LIM zinc finger domain containing 3)	1.24	1.08	0.87
PLPP4 (phospholipid phosphatase 4)	1.28	0.74	0.58
BAZ1A (bromodomain adjacent to zinc finger domain 1A)	1.15	0.94	0.82
